Test results taken from patent US8815295B1, “Anti respiratory syncytial virus peptide functionalized gold nanoparticles” (Alabama State University, priority 2011, dated 2014).
Part of at least one peptide drawing is inferred or uncertain, most often the ends. Peptide text beside a SMILES is read from it.

Test system: RSV
Experiment: RSV plaque reduction (inhibition of RSV infection, antifusogenic activity) in HEp-2 cells
Assay type: cell-based, human respiratory syncytial virus
Conditions: peptide 3.125 μM to 50 μM, 100 PFU RSV, 72 hours

CC[C@H](C)[C@H](NC(=O)[C@H](Cc1ccccc1)NC(=O)[C@H](C)NC(=O)[C@H](CC(C)C)NC(=O)[C@H](CO)NC(=O)[C@H](CCC(N)=O)NC(=O)[C@H](CC(N)=O)NC(=O)[C@@H](NC(=O)[C@H](CCCCN)NC(=O)[C@H](CCC(=O)O)NC(=O)[C@H](CC(N)=O)NC(=O)[C@@H](NC(=O)[C@H](CCC(N)=O)NC(=O)[C@H](CO)NC(=O)[C@@H](NC(=O)[C@@H](N)CO)[C@@H](C)CC)C(C)C)[C@@H](C)CC)C(=O)N[C@@H](CCCNC(=N)N)C(=O)N[C@@H](CCCCN)C(=O)N[C@@H](CO)C(=O)N[C@@H](CC(=O)O)C(=O)O [RF491] (H-SISQVNEKINQSLAFIRKSD-OH)
reducing plaque counts (in words): not effective
